# No constants are given. Whether binding was seen depends on the method and setting. Binding seen in cells or lysates may run through a third protein. Some results given as binding are weak or reduced against the parent protein; the word gives no strength.
# Sequences of proteins named here, by UniProt entry; tags and fusion partners are left off. A change or cut given only in a name is not applied to a line headed by its entry. A line that says so, or that is headed by a name, gives the form on record, which may keep a tag or linker.
# UniProt Q9Z2G6: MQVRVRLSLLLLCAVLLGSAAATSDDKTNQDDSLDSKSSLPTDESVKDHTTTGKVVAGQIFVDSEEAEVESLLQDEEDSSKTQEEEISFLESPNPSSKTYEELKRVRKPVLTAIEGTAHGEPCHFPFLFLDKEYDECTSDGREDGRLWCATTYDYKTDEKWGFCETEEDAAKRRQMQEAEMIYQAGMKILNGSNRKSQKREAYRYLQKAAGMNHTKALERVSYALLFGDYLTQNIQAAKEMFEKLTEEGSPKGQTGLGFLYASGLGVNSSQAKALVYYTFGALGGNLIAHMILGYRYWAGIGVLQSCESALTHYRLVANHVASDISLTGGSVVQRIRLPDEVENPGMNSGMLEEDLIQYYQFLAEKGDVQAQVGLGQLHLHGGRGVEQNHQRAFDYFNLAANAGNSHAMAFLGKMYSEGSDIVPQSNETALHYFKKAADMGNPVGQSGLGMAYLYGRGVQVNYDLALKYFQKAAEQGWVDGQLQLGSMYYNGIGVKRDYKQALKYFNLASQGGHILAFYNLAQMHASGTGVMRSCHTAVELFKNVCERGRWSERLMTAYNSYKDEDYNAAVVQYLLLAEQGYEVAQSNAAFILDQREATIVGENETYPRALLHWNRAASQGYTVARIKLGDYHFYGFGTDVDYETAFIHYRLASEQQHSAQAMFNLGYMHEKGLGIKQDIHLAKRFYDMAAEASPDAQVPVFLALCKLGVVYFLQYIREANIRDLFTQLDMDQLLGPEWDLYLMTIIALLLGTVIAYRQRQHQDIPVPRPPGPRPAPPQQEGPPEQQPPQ
# SEL1L^cent-KDEL (SEL1L^cent-FLAG-KDEL, SEL1L^cent-HA-KDEL) (Q9Z2G6, form named): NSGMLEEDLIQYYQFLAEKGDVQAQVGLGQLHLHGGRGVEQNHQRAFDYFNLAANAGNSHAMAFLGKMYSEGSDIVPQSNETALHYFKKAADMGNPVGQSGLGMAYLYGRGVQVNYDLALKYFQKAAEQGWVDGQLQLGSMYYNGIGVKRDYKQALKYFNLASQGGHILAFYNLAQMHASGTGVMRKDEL
# Tests used:
# [1] = target: full-length mouse SEL1L (SEL1L-HA and SEL1L-FLAG) (mouse) (UniProt Q9Z2G6); experiment: co-IP; HEK293T co-transfected; lysis in 50 mM Tris pH 7.4, 150 mM NaCl, 0.1% Triton X-100, 5% glycerol; IP anti-FLAG and blot anti-HA (Fig. 4A) or IP anti-HA and blot anti-FLAG (Fig. 4D)
# [2] = target: full-length mouse SEL1L (SEL1L-HA and SEL1L-FLAG) (mouse) (UniProt Q9Z2G6); experiment: co-IP; competition: HEK293T co-transfected with SEL1L-HA, SEL1L-FLAG and increasing doses of a KDEL-tagged SEL1L fragment; IP anti-FLAG, blot anti-HA (Fig. 4E, F)
Substance,binding [1],binding [2]
SEL1L^cent expressed in HEK293T behind the SEL1L signal peptide (no KDEL) (from UniProt Q9Z2G6 348-533) (domain or fragment),binds,–
"SEL1L^cent-KDEL (SEL1L^cent-FLAG-KDEL, SEL1L^cent-HA-KDEL) (from UniProt Q9Z2G6 348-533) (domain or fragment)",binds,–
full-length mouse SEL1L (SEL1L-HA and SEL1L-FLAG) (from UniProt Q9Z2G6 22-790),binds,binds

# Reference: PMC4746701
